Source: PubChem BioAssay AID1224828 (NIAID, 2016)
Shown is one part, drawn at random, of about 17,000 reagents tested. Over the whole deposit, 762 (4.5%) are marked active. 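Active calls include both raised and lowered p65 entry, mostly lowered; wells with fewer than 50 cells lack a z-score.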 Raw values are not corrected between plates.

Assay: 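Find genes required for NF-kappaB p65 moving into the nucleus after LPS in mouse macrophages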 (primary screen)
Cells: mouse RAW264.7 G9 macrophage reporter cells (GFP-p65, Tnf promoter-mCherry)
Reagent: siRNA pool against mouse genes, 100 nM
Timing: 2 days siRNA transfection, then 40 min LPS before fixation
Conditions: LPS (Salmonella minnesota R595) at 10 ng/ml
Detection: 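Imaged p65 nuclear translocation ratio, normalised to the plate median, converted to robust z-scores and averaged across two replicates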
Direction: p65 translocation robust z-score: higher = more nuclear NF-kappaB p65 after LPS than the plate median; nuclear/cytoplasmic p65 ratio: higher = more nuclear NF-kappaB p65
Active means: 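Active if robust z is above 3.3 (negative regulators) or below -1.56, the Tlr4 control median (positive regulators); activity score 50 or more; control wells not called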
Calls: active = hit (p65 shift raised or lowered); inactive = no clear change

no.	Target gene	PubChem SID	p65 translocation robust z-score	nuclear/cytoplasmic p65 ratio, rep 1	nuclear/cytoplasmic p65 ratio, rep 2	low cell count flag	Outcome
1	Sfrp2 (GeneID 20319)	SID315469154	-1.29	1.35	1.39	enough cells to score	inactive
2	Lag3 (GeneID 16768)	SID315467715	0.71	1.52	1.52	enough cells to score	inactive
3	Ggt6 (GeneID 71522)	SID315474249	0.4	1.45	1.63	enough cells to score	inactive
4	Or5d46 (GeneID 258767)	SID315480415	2.59	2.01	2	enough cells to score	inactive
5	Zfx (GeneID 22764)	SID315470144	-1.14	1.37	1.33	enough cells to score	inactive
6	Polr3gl (GeneID 69870)	SID315473921		1.33	1.22	fewer than 50 cells per well; well left out of scoring	inactive
7	Pitx2 (GeneID 18741)	SID315468532	-0.44	1.48	1.31	enough cells to score	inactive
8	Mrps25 (GeneID 64658)	SID315472115	2.06	2.16	1.86	enough cells to score	inactive
9	BC002059 (GeneID 213811)	SID315477827	-1.24	1.31	1.72	enough cells to score	inactive
10	Gbp6 (GeneID 100702)	SID315476241	0.41	1.6	1.82	enough cells to score	inactive
11	Or5d41 (GeneID 258525)	SID315480197	-0.67	1.66	1.39	enough cells to score	inactive
12	Gtf3c2 (GeneID 71752)	SID315474308	-0.9	1.44	1.52	enough cells to score	inactive
13	Rfx1 (GeneID 19724)	SID315468958	-0.07	1.49	1.52	enough cells to score	inactive
14	Npas3 (GeneID 27386)	SID315470598	0.47	1.79	1.59	enough cells to score	inactive
15	Nlrp4b (GeneID 210045)	SID315477627	0.32	1.58	1.63	enough cells to score	inactive
16	Tpsg1 (GeneID 26945)	SID315470499		1.37	1.37	fewer than 50 cells per well; well left out of scoring	inactive
17	Obsl1 (GeneID 98733)	SID315476144	1.51	1.84	1.8	enough cells to score	inactive
18	Vmn2r29 (GeneID 76229)	SID315475265	0.88	1.5	1.72	enough cells to score	inactive
19	Anpep (GeneID 16790)	SID315467729	-0.35	1.61	1.53	enough cells to score	inactive
20	Foxp2 (GeneID 114142)	SID315476998	-1.08	1.21	1.31	enough cells to score	inactive
21	Erbb3 (GeneID 13867)	SID315466548	0.73	1.88	1.42	enough cells to score	inactive
22	Hmgn3 (GeneID 94353)	SID315476087	-0.62	1.37	1.28	enough cells to score	inactive
23	Sec61a2 (GeneID 57743)	SID315471803	0.93	1.51	1.38	enough cells to score	inactive
24	Smgc (GeneID 223809)	SID315478296		1.33	1.03	fewer than 50 cells per well; well left out of scoring	inactive

Ordered by “nuclear/cytoplasmic p65 ratio, rep 2” (ascending): some entries from above.
Target gene	PubChem SID	p65 translocation robust z-score	nuclear/cytoplasmic p65 ratio, rep 1	nuclear/cytoplasmic p65 ratio, rep 2	low cell count flag	Outcome
Tpsg1 (GeneID 26945)	SID315470499		1.37	1.37	fewer than 50 cells per well; well left out of scoring	inactive
Nlrp4b (GeneID 210045)	SID315477627	0.32	1.58	1.63	enough cells to score	inactive
Obsl1 (GeneID 98733)	SID315476144	1.51	1.84	1.8	enough cells to score	inactive
